About 2,100 (0.66%) of roughly 320,000 compounds were called active. The inconclusive results got no clear call from the source; some entries with a clear call stand among them for comparison. The call rests on the fitted dose curve; in most records, active means well fitted inhibition curve with a large enough effect in the signal ratio, with a control signal flat (not every such curve was filed as active); inconclusive means small, poorly fitted or top-dose-only effect, or effect the other way, or a change in a side signal; inactive means flat fitted curve, though single readings scatter; the % refers to the signal ratio. Potencies beside an inconclusive call are fits to weak or partial responses and may not hold up.
Experiment: qHTS Assay for Lipid Storage Modulators in Drosophila S3 Cells
Conditions: BODIPY lipid droplet fluorescence, 18-24 h, cells fed with added oleic acid; lipid storage change, negative = inhibition: at 46.1 µM (top of the series) unless noted
How it was run: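 Drosophila S3 cells loaded with oleic acid (400 uM, as added) and compounds at several concentrations; lipid droplets imaged by 488-nm laser-scanning cytometry, 500–530 nm intensity and object ratio to cell channel. Percent activity normalized to 20 uM Triacsin C.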
On the % scale 0 is the no-effect control and ±100 the full control effect; potency means the concentration at half of the fitted maximal effect.

Compound | lipid storage change, negative = inhibition | Potency
O=C(N/N=C/c1ccncc1)C12CC3CC(CC(C3)C1)C2 | inconclusive: -3.74% | –
Cc1ccc2c(C(=O)CN3CCCC3)c(C)[nH]c2c1 | – | inconclusive: 3.66 µM [activator, partial curve]
CC(C)CCNC(=O)[C@H](CC(C)C)NC(=O)[C@H]1O[C@@H]1C(=O)O | inconclusive: -1.28% | –
COc1cc(OC)cc(-c2cc(N)n(S(=O)(=O)Cc3ccccc3)n2)c1 | – | inconclusive: 0.092 µM [activator, full curve, poor fit]
Cc1ccc(S(=O)(=O)N2Cc3ccccc3CC2C(=O)Nc2cc(C)on2)cc1 (centres undefined) | inconclusive: 13.1% | –
COc1ccc(NC(=O)C23CC4CC(C2)CC(c2ccccc2)(C4)C3)c(OC)c1 | inconclusive: -2.94% | –
Cc1cc2c(=O)n(NC(N)=O)c(C)nc2s1 | inconclusive: -41.1% | –
Cn1c(=O)c2c(nc(Br)n2Cc2ccc3ccccc3c2)n(C)c1=O | inconclusive: -21% | –
CC(=O)c1cccc(NC(=S)NC(=O)c2ccccc2)c1 | inconclusive: 14.8% | –
CCC(C)NC(=O)COC(=O)c1oc2ccccc2c1CSc1ccc(Cl)cc1 (centres undefined) | inconclusive: -4.98% | –
Cc1nc(-c2ccccc2)sc1C(=O)CSc1ccc(Br)cc1 | inconclusive: 55.8% | –
CCOc1ccc(N2C(=O)c3cccnc3C2Nc2ccc(OC)cc2)cc1 (centres undefined) | inconclusive: 11.6% | –
CCCn1c(SCC(=O)Nc2ccccc2C(=O)NC2CC2)n[nH]c1=O | – | inconclusive: 6.51 µM [falling, single point]
Cc1nc(N2CCN(C(c3ccccc3)c3ccccc3)CC2)[nH]c(=O)c1C | inconclusive: -8.91% | –
CCOc1ccc(-c2nc(S(=O)(=O)c3ccccc3)c(NCc3cccnc3)o2)cc1 | – | inconclusive: 0.0046 µM [activator, full curve, poor fit]
O=C(CNS(=O)(=O)c1ccc(Br)s1)NC1CCCc2ccccc21 (centres undefined) | inactive | –
Cc1ccc(-n2c(C)nnc2SCC(=O)N(C)C2CCS(=O)(=O)C2)cc1 (centres undefined) | – | inconclusive: 23.1 µM [falling, single point]
Cc1ccc(S(=O)(=O)N/N=C\c2ccc3c(c2)OCO3)c(C)c1 | – | inconclusive: 0.103 µM [activator, full curve, poor fit]
Cc1ccc(F)cc1CNC(=O)C1CCC(=O)N(CCc2ccccc2)C1 (centres undefined) | inconclusive: -142% | –
COc1cc(CNC2CCCCC2OC)cc(OC)c1OC (centres undefined) | inactive | –
Clc1nssc1=Nc1ccccc1 | – | inconclusive: 29.1 µM [cytotoxic, single point]
Cc1ccccc1NC(=O)Cc1nc(COC(=O)c2ccc([N+](=O)[O-])cc2)cs1 | inconclusive: 77.2% | –
CC1(C(=O)NNC(=O)c2ccc(=O)oc2)CC1Br (centres undefined) | inconclusive: 0.647% | –
CC(C)Oc1ccc(NC(=O)C2CCCNC2=O)cc1 (centres undefined) | inconclusive: -28.1% | –
CCOc1ccc(OCCNC(=O)c2oc3ccccc3c2COC)cc1 | – | inconclusive: 29.1 µM [falling, single point]
Cc1ccc(OCCOC(=O)c2sc(=S)n(C)c2C)cc1 | inconclusive: 11.7% | –
COC(=O)c1cc(Br)ccc1OC(=O)c1cccnc1 | inconclusive: 5.56% | –

Compound | lipid storage change, negative = inhibition | Potency
CCOc1ccc(-c2nc(-c3cccnc3)no2)cc1OCC | – | inconclusive: 0.206 µM [activator, full curve, poor fit]
CCOC(=O)c1c(O)c2c(n(Cc3ccco3)c1=O)CCCC2 | – | inconclusive: 1.3 µM [falling, full curve]
CC(C)C[C@H](NC(=O)C1CCN(S(=O)(=O)c2ccccc2)CC1)C(=O)NCc1ccccn1 | – | inconclusive: 29.1 µM [falling, single point]
C=CCc1cccc2cc(C(=O)N3CCN(C(=O)OCC)CC3)c(=O)oc12 | – | inconclusive: 1.46 µM [rising, partial curve]
COc1ccc(C(=O)COC(=O)/C=C/c2ccccc2)cc1 | inconclusive: 19.5% | –
O=C(NCCNC(=O)c1ccccc1F)c1ccccn1 | – | inconclusive: 6.51 µM [activator, single point]
CCN(CC)S(=O)(=O)c1cccc(NC(=O)CSc2nnc(N)s2)c1 | inconclusive: 38.3% | –
COc1ccc2[nH]c(=O)c(CN(Cc3cccs3)C(=S)Nc3ccccc3)cc2c1 | inconclusive: 22.7% | –
CCN=C1S/C(=C\c2cc(Br)c(O)c(OC)c2)C(=O)N1CC | inactive | –
COc1ccccc1-n1cc(C(=O)N2CCCC(CO)(Cc3ccccc3C)C2)cn1 (centres undefined) | inconclusive: 19.2% | –
COc1ccc(CCC(=O)NCc2cnn(C)c2)cc1 | – | inconclusive: 0.731 µM [falling, single point]
CCOC(=O)c1c(C)[nH]c(C(=O)CN2C(=O)NC(CC)(c3ccccc3)C2=O)c1C (centres undefined) | – | inconclusive: 0.517 µM [falling, full curve, poor fit]
O=C(Nc1cccnc1)C1CCCN(c2ncnc3c2nc2n3CCCCC2)C1 (centres undefined) | – | inconclusive: 1.84 µM [activator, partial curve]
COc1ccc(NC(=S)N2CCN(S(=O)(=O)c3ccccc3)CC2)cc1 | inconclusive: 51.1% | –
COc1ccc(-c2csc3ncnc(Oc4ccc5c(C)cc(=O)oc5c4)c23)cc1 | – | inconclusive: 1.16 µM [activator, full curve, poor fit]
Clc1ccc(/C=C/c2nc(Cl)c(-c3ccc(Cl)cc3)c(Cl)n2)cc1 | inconclusive: -12.6% | –
Cn1nc(-c2ccccc2)nc1-c1ccccc1 | inconclusive: 10.2% | –
Nc1cc(Oc2ccc(F)cc2F)cc([N+](=O)[O-])c1 | inconclusive: -1.41% | –
O=c1[nH]ncc2c3ccccc3n(Cc3cccc(Cl)c3)c12 | inconclusive: 27.6% | –
O=C(c1c(F)cccc1F)N1CCN(c2cccc(C(F)(F)F)c2)CC1 | inconclusive: -2.23% | –
COc1cccc2c(SCC(=O)N/N=C/c3ccc(O)cc3O)cc(C)nc12 | inconclusive: -36% | –
CN1C(=O)C(/C(N)=N/NC(=O)c2ccccc2)C2CC1(C)Oc1ccccc12 (centres undefined) | – | inconclusive: 29.1 µM [falling, single point]
CCOCCn1c(CN2CCC(C)CC2)nc2c1c(=O)n(C)c(=O)n2C | inconclusive: 0.849% | –
O=C(CCCN1C(=O)/C(=C/c2ccccc2Cl)SC1=S)N1CCCC1 | inconclusive: -68.3% | –
CCCSc1oc(-c2ccco2)nc1S(=O)(=O)c1ccccc1 | – | inconclusive: 0.731 µM [activator, full curve, poor fit]
O=C(O)Cn1cccc1C(=O)c1ccccc1 | inconclusive: -4.29% | –
Cc1ccccc1-n1c(C)cc(/C=C2/C(=N)N3C(c4ccccc4)=CSC3=NC2=O)c1C | inconclusive: -55.7% | –

Compound | lipid storage change, negative = inhibition | Potency
COc1cc(C(=O)NC(=S)N(CCc2ccccc2)CCc2ccccc2)cc(OC)c1OC | inconclusive: -61.1% | –
CC(=O)c1c(C)[nH]c(C(=O)C(C)Sc2nnc(NC3CC3)s2)c1C (centres undefined) | – | inconclusive: 29.1 µM [falling, single point]
O=c1c2ccccc2n2c(-c3ccc(F)cc3)nnc2n1Cc1ccccc1 | inconclusive: 41.1% | –
C/C(=N\NC(=O)C(O)(c1ccccc1)c1ccccc1)c1ccc(NC(=O)CCCC(=O)O)cc1 | inconclusive: 82.3% | –
CCc1cccc(C)c1NC(=O)CSc1nc(C)c(C)o1 | inconclusive: 22.4% | –
CN1CCN(C(=O)c2ccc(-c3cccs3)s2)CC1 | inconclusive: 7.18% | –
CCCC(=O)Nc1ccc2oc(-c3ccc(OC)c(Br)c3)nc2c1 | inconclusive: 5.82% | –
Cc1ccc(CNC(=O)C2CCCN(S(=O)(=O)c3cccc4nonc34)C2)cc1 (centres undefined) | inconclusive: 51.5% | –
O=C1CSC(c2cccc([N+](=O)[O-])c2)N1Cc1ccccc1 (centres undefined) | inconclusive: -26.9% | –
COc1ccc(N(Cc2cc3cc(OC)ccc3[nH]c2=O)C(=O)C2CCCO2)cc1 (centres undefined) | inconclusive: 26.1% | –
CCC(CO)NC(=O)c1cc2c(s1)CCC2 (centres undefined) | – | inconclusive: 3.66 µM [falling, partial curve, poor fit]
COc1cccc(NS(=O)(=O)c2ccc(S(=O)(=O)N3CCCC3)cc2)c1 | inconclusive: 12.1% | –
CCNC(=O)C(=O)NCC1CCCN1S(=O)(=O)c1cccs1 (centres undefined) | inconclusive | –
COC(=O)C1=C(C)N(Cc2ccccc2)C(=NCc2ccco2)N[C@H]1c1ccc(Br)cc1 | inconclusive: -38.2% | –
Cc1cc(C)c2c(=O)cc(C(F)(F)F)oc2n1 | inactive | –
COc1cccc(NC(=O)CSc2nnnn2C2CCCCC2)c1 | inconclusive: 7.22% | –
Cc1ccc2c(CC(=O)OCn3nnc4ccccc4c3=O)coc2c1 | inconclusive: 9.68% | –
Cc1ccccc1NS(=O)(=O)c1nnc(NC(=O)CC(C)C)s1 | inconclusive: -0.778% | –
COc1cc(C(=O)NC(C)CCc2ccccc2)cc(OC)c1OC (centres undefined) | – | inconclusive: 6.51 µM [activator, single point]
OC(CNCc1ccccc1)(c1ccccc1)c1ccccc1 | – | inconclusive: 4.11 µM [rising, full curve, poor fit]
CCOC(=O)N1CCOCCOCCN(C(=O)OCC)CCOCC1 | inconclusive: 6.79% | –
O=C(NCC1CCCO1)C1c2ccccc2C(=O)N1C1CCCCCC1 (centres undefined) | – | inconclusive: 6.51 µM [falling, single point]
COc1ccc(/C=C/C(=O)NC(C)CCc2ccccc2)cc1OC (centres undefined) | inactive | –
O=C(/C=C/c1c(F)cccc1Cl)N1CCOCC1 | inconclusive: 24% | –
N#Cc1ccccc1OCC(=O)OCC(=O)c1c[nH]c2ccccc12 | inconclusive: 75.3% | –

For reference, 4 of the compounds above.
Compound | lipid storage change, negative = inhibition | Potency
C/C(=N\NC(=O)C(O)(c1ccccc1)c1ccccc1)c1ccc(NC(=O)CCCC(=O)O)cc1 | inconclusive: 82.3% | –
CCc1cccc(C)c1NC(=O)CSc1nc(C)c(C)o1 | inconclusive: 22.4% | –
CN1CCN(C(=O)c2ccc(-c3cccs3)s2)CC1 | inconclusive: 7.18% | –
CCCC(=O)Nc1ccc2oc(-c3ccc(OC)c(Br)c3)nc2c1 | inconclusive: 5.82% | –

From PubChem BioAssay AID2685 (National Center for Advancing Translational Sciences (NCATS), 2010)
